Experimental data: US20240024505A1
These are yes or no findings as the source states them, for the method shown. Some entries that bind do so weakly or less than the wild type.

Protein sequences, listed by entry. Tags and fused reporters are not part of them. Residues count along the entry.
UniProt P05019, residues 49-118: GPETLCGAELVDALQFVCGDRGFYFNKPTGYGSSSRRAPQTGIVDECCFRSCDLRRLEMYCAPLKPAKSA
UniProt P17936, residues 28-291: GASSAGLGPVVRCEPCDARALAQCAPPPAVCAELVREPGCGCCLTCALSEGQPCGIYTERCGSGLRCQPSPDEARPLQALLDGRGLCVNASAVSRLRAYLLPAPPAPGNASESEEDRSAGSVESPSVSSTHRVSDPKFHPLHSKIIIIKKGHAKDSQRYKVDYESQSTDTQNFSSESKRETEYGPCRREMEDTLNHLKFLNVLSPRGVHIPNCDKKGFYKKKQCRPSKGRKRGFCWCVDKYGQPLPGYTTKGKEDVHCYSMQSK

Tests used:
recombinant IGF-1 [1] = target: recombinant IGF-1 (UniProt P05019); experiment: sandwich ELISA for free IGF-1 (FIG. 4D legend)
recombinant IGF-1 [2] = target: recombinant IGF-1 (UniProt P05019); experiment: sandwich ELISA for free IGF-1 after incubation of recombinant IGFBP-3 with IGF-1, with and without PAPPA2

For “recombinant IGFBP-3 (from UniProt P17936 28-291)”, the binding (recombinant IGF-1 [1]) was “binds” and the binding (recombinant IGF-1 [2]) was “binds”.
